Results are given in words; binding and its absence hold for the method and conditions named. For part of these data: In cells and extracts the contact can be indirect. Some binding calls cover weakened binding; strength is not graded here.
Key:
[1] = target: GAL4-MEF2D (UniProt Q14814); assay: two-hybrid; mammalian two-hybrid in HEK293T cells: pVP16-CABIN1 constructs with pGAL4-MEF2D under a Gal-promoter-luciferase reporter system (Promega); luciferase activity as read-out
[2] = target: myocyte enhancer factor 2D (MEF2D), wild type (UniProt Q14814); assay: co-IP; CB15 (or CB15 L2172A) and MEF2D or MEF2D fusion proteins co-transfected into HEK293T cells; immunoprecipitation assays

By UniProt entry, the sequences of proteins in these tests, tags left out. Residues count along the entry.
UniProt Q14814: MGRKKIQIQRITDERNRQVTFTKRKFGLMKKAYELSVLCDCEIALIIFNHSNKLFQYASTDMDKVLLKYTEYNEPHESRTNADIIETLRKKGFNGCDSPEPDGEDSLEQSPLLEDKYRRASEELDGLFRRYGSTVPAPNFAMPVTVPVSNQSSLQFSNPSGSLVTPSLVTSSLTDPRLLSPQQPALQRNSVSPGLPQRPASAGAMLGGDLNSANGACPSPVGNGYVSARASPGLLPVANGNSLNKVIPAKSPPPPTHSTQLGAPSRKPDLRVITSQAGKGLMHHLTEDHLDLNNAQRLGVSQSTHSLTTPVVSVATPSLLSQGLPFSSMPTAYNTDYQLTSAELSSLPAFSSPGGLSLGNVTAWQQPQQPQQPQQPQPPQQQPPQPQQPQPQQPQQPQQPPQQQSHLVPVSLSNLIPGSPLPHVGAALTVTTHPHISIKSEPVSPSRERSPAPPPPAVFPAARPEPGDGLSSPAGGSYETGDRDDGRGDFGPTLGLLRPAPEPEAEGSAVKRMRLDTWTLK
VP16-CABIN1 peptide CB15 (2156-2220) (Q9Y6J0, residues 2156-2220): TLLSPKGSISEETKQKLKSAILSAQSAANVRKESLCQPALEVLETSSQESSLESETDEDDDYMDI
VP16-CABIN1 peptide: CB15 with 10 amino acids removed from the C-terminus (Q9Y6J0, residues 2156-2210): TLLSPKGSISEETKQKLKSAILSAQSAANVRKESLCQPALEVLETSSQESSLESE

Row | binding [1] | binding [2] | Substance
1 | binds |  | VP16-CABIN1 peptide: CB15 with 10 amino acids removed from the C-terminus (from UniProt Q9Y6J0 2156-2210) (domain or fragment)
2 |  | binds | CABIN1_15 (CB15, 2156-2220) (from UniProt Q9Y6J0 2156-2220) (domain or fragment)
3 | binds |  | VP16-CABIN1 peptide CB15 (2156-2220) (from UniProt Q9Y6J0 2156-2220) (domain or fragment)
